Experimental findings from paper PMC5996148 are described below.

Holding throughout (experiment): protein microarray (ProtoArray v5.0), streptavidin-Alexa Fluor 647
Holding throughout (conditions): 3'-biotin; 20 mM Tris (pH 7.5), 5 mM MgCl2, 100 mM KCl, 0.1% Tween-20, A/T-rich and random oligonucleotide blockers; temperature not stated; high values mean tight binding

Experiment [1] concerns C7orf24 (human).
The subject of experiment [2] is C7orf36 (human).
Experiment [3] concerns C7orf41 (human).
Experiment [4] relates to C8orf43 (human).
Experiment [5] has as its system C8orf47 (human).
In experiment [6] the test system is C8orf76 (human).
Experiment [7] has as its system C9orf46 (human).
In experiment [8] the test system is C9orf71 (human).
The subject of experiment [9] is C9orf95 (human).
The test system of experiment [10] is CA2 (human).

Some of the results follow.

For “GGTGACAGGGGTATGGGGAGGGG [G4-2 biotinylated (Ct1)]”, the binding signal in experiment [1] was -0.366 z-score; in experiment [2], -0.399 z-score; in experiment [3], -0.404 z-score; in experiment [4], -0.384 z-score; in [5], -0.404 z-score; in experiment [6], -0.369 z-score. Besides, the binding signal in [7] was -0.374 z-score; in experiment [8], -0.363 z-score; in experiment [9] it was -0.374 z-score; in [10], -0.383 z-score.
